Earlier results as cited in patent US20250295156A1, “LOADED GRANULES, THEIR PROCESS OF PRODUCTION AND THEIR USES” (Evie SA, priority 2019, published 2025).

Details: crystalline powder

Compound: C=C(C)[C@@H]1CCC(C)=C[C@H]1c1c(O)cc(CCCCC)cc1O [isolates]
- solubility in oil (oil): soluble in oil
- solubility in water (water): not in water
